Results as given in publication PMC6858345, “Structural insights into heme binding to IL-36α proinflammatory cytokine” (Scientific Reports, 2019).

Test: Resonance Raman spectroscopy of heme complexes (coordination state)
Design: key to Raman coordination state: 5c, pentacoordinated; 6c, hexacoordinated
Settings: excitation 413 nm; for Raman coordination state: equimolar heme and protein or peptide

B1: IL-36α: full-length interleukin-36α, recombinantly expressed in E. coli (protein, UniProt Q9UHA7 1-158, looked up)
chain: MEKALKIDTPQQGSIQDINHRVWVLQDQTLIAVPRKDRMSPVTIALISCRHVETLEKDRGNPIYLGLNGLNLCLMCAKVGDQPTLQLKEKDIMDLYNQPEPVKSFLFYHSQSGRNSTFESVAFPGWFIAVSSEGGCPLILTQELGKANTTDFGLTMLF
modifications: full-length
notes: full-length interleukin-36α, recombinantly expressed in E. coli
  Heme-iron coordination state by rRaman (in words): pentacoordinated
  Raman coordination state: 5c

B2: H109A: IL-36α protein mutant H109A (protein, UniProt Q9UHA7 6-158, looked up, variant H109A)
Interleukin-36 alpha: KIDTPQQGSIQDINHRVWVLQDQTLIAVPRKDRMSPVTIALISCRHVETLEKDRGNPIYLGLNGLNLCLMCAKVGDQPTLQLKEKDIMDLYNQPEPVKSFLFYASQSGRNSTFESVAFPGWFIAVSSEGGCPLILTQELGKANTTDFGLTMLF
  Heme-iron coordination state by rRaman (in words): pentacoordination
  Raman coordination state: 5c

B3: C136SP137A: IL-36α protein mutant C136S P137A (protein, UniProt Q9UHA7 6-158, looked up, variant C136S P137A)
Interleukin-36 alpha: KIDTPQQGSIQDINHRVWVLQDQTLIAVPRKDRMSPVTIALISCRHVETLEKDRGNPIYLGLNGLNLCLMCAKVGDQPTLQLKEKDIMDLYNQPEPVKSFLFYHSQSGRNSTFESVAFPGWFIAVSSEGGSALILTQELGKANTTDFGLTMLF
  Raman coordination state: 5c

B4: Y108SC136SP137A: IL-36α protein mutant Y108S C136S P137A (protein, UniProt Q9UHA7 6-158, looked up, variant Y108S C136S P137A)
Interleukin-36 alpha: KIDTPQQGSIQDINHRVWVLQDQTLIAVPRKDRMSPVTIALISCRHVETLEKDRGNPIYLGLNGLNLCLMCAKVGDQPTLQLKEKDIMDLYNQPEPVKSFLFSHSQSGRNSTFESVAFPGWFIAVSSEGGSALILTQELGKANTTDFGLTMLF
  Raman coordination state: 5c

B5: Y108S: IL-36α protein mutant Y108S (protein, UniProt Q9UHA7 6-158, looked up, variant Y108S)
Interleukin-36 alpha: KIDTPQQGSIQDINHRVWVLQDQTLIAVPRKDRMSPVTIALISCRHVETLEKDRGNPIYLGLNGLNLCLMCAKVGDQPTLQLKEKDIMDLYNQPEPVKSFLFSHSQSGRNSTFESVAFPGWFIAVSSEGGCPLILTQELGKANTTDFGLTMLF
  Raman coordination state: 5c

B6: Y108SH109A: IL-36α protein mutant Y108S H109A (protein, UniProt Q9UHA7 6-158, looked up, variant Y108S H109A)
Interleukin-36 alpha: KIDTPQQGSIQDINHRVWVLQDQTLIAVPRKDRMSPVTIALISCRHVETLEKDRGNPIYLGLNGLNLCLMCAKVGDQPTLQLKEKDIMDLYNQPEPVKSFLFSASQSGRNSTFESVAFPGWFIAVSSEGGCPLILTQELGKANTTDFGLTMLF
  Raman coordination state: 5c

B7: Y108SH109AC136SP137A: IL-36α protein mutant Y108S H109A C136S P137A (protein, UniProt Q9UHA7 6-158, looked up, variant Y108S H109A C136S P137A)
Interleukin-36 alpha: KIDTPQQGSIQDINHRVWVLQDQTLIAVPRKDRMSPVTIALISCRHVETLEKDRGNPIYLGLNGLNLCLMCAKVGDQPTLQLKEKDIMDLYNQPEPVKSFLFSASQSGRNSTFESVAFPGWFIAVSSEGGSALILTQELGKANTTDFGLTMLF
  Raman coordination state: 5c

B8: H109AC136SP137A: IL-36α protein mutant H109A C136S P137A (protein, UniProt Q9UHA7 6-158, looked up, variant H109A C136S P137A)
Interleukin-36 alpha: KIDTPQQGSIQDINHRVWVLQDQTLIAVPRKDRMSPVTIALISCRHVETLEKDRGNPIYLGLNGLNLCLMCAKVGDQPTLQLKEKDIMDLYNQPEPVKSFLFYASQSGRNSTFESVAFPGWFIAVSSEGGSALILTQELGKANTTDFGLTMLF
  Raman coordination state: 5c
